A short description of this experiment: qHTS Assay for Modulators of Lamin A Splicing. The conditions noted are these: HeLa LMNA splicing GFP/RFP minigene ratio, 48 h. The essentials: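 Read-out is the ratio of GFP to DsRed2 object intensity, acquired by 488 nm laser-scanning cytometry on HeLa lamin A-EGFP minigene reporter cells. Compound incubation 48 hrs at 37 °C in Opti-MEM with 2% FBS; DMSO 0.5% final.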
(In qHTS, concentration-response curves come from the screen itself.)

Setting [1] is: measured here: RFP viability control channel.
[2] abbreviates: measured here: GFP splicing reporter channel.

Some of the results follow. These are further read-outs of the screen, such as a control signal, another cell line or another target. No call is given for them. Compounds called inactive in the main read-out are mostly missing here. Potencies come from curve fits of mixed quality, noted in brackets.

The AC50 is the concentration giving half of the maximal activity seen. Consider `COc1ccc(-c2nc3ccc([N+](=O)[O-])cc3[nH]2)cc1`, for which the AC50 under setting [1] was 11.2 µM [rising, partial curve, poor fit].
For the molecule `Cc1cc(C)cc(Cn2ncc(Cl)c(Cl)c2=O)c1`, the AC50 is 35.5 µM [falling, single point] under setting [2] and 35.5 µM [falling, single point] under setting [1].
With `CCCCNC(=S)N1CCN(c2nc3ccccc3s2)CC1`, the AC50 under setting [1] is 0.0224 µM [falling, full curve, poor fit].
Turning to `CCCC(=O)NC(NC(=S)Nc1ccc(N=Nc2ccccc2)cc1)C(Cl)(Cl)Cl` (stereo not drawn), under setting [1], the AC50 is 7.08 µM [rising, full curve, poor fit].
On to `O=C(CN(C(=O)Cn1nnc(-c2ccc(F)cc2)n1)C1CCCC1)NC1CCCC1`, for which the AC50 under setting [1] was 0.0398 µM [rising, full curve, poor fit].
As to `CC(NC(=O)c1ccco1)C(c1cccs1)N1CCN(c2ccc(F)cc2)CC1` (stereo not drawn), the AC50 under setting [1] is 31.6 µM [rising, single point].
With `Cc1cc(C)n(-c2ccc(C(=O)Nc3ccc(S(=O)(=O)NCc4ccco4)cc3)cc2)n1`, the AC50 was 1.12 µM [rising, partial curve] under setting [2] and 3.16 µM [rising, full curve] under setting [1].
For `O=C(/C=C/c1ccccc1)/C=C/c1ccccc1`, the AC50 is 35.5 µM [falling, partial curve, poor fit] under setting [2] and 17.8 µM [rising, partial curve] under setting [1].
With `S=C(Nc1cccc(Cl)c1)Nc1cccc2cnccc12`, under setting [1], the AC50 is 17.8 µM [rising, single point].
For `Cc1ccc(NS(=O)(=O)c2cc(C(=O)Nc3cccc([N+](=O)[O-])c3)ccc2C)cc1`, the AC50 under setting [2] was 35.5 µM [falling, single point].
Turning to `COCC(C)NC(=O)NC1(C(F)(F)F)Oc2ccc(Cl)cc2O1` (stereo not drawn), under setting [1], the AC50 is 15.8 µM [rising, single point].
On the same count and under the same terms, the figure for `Cc1c(C(=O)N2CCCc3ccccc32)oc2ccc(S(=O)(=O)N3CCOCC3)cc12` is 14.1 µM [rising, single point].
For `COc1ccccc1-n1c(C)cc(/C=C2/C(=N)N3C(=NC2=O)SN=C3S(C)(=O)=O)c1C`, the AC50 under setting [2] was 0.447 µM [rising, full curve, poor fit].
For `CC(C)(C)NC(=O)C(c1c[nH]c2ccccc12)N(C(=O)Cn1nnc(-c2ccc(F)cc2)n1)c1cccc(O)c1` (stereo not drawn), the AC50 under setting [1] was 35.5 µM [rising, single point].
Turning to `CC(C)(CO)NC(=O)C(c1ccccc1)c1ccccc1`, the AC50 under setting [1] was 35.5 µM [rising, single point].
The same measure, in the same setting: to `O=C1OC(c2ccc3c(c2)OCO3)N(C(=O)c2ccc(Cl)c(Cl)c2)c2ccccc21` (stereo not drawn) belongs 35.5 µM [rising, single point]; to `Cc1nc([N+](=O)[O-])cn1-c1nc2ccccn2c1[N+](=O)[O-]`, 22.4 µM [rising, partial curve, poor fit].
Regarding `Clc1ccc(-c2nnc3c4ccccc4nc(N4CCOCC4)n23)cc1Cl`, the AC50 under setting [2] was 15.8 µM [falling, partial curve, poor fit].
Still for that read-out and setting: to `CSCC(=O)NS(=O)(=O)c1ccc(C)cc1` belongs 3.98 µM [falling, partial curve].
Take `Cc1ccc(CN(C(=O)c2sc3ccccc3c2Cl)C2CCS(=O)(=O)C2)cc1` (stereo not drawn): the AC50 is 35.5 µM [rising, single point] under setting [2] and 35.5 µM [rising, partial curve] under setting [1].
For `Cc1cccc(CNc2ncnc3ccc(-c4cccnc4)cc23)c1`, the AC50 was 12.6 µM [falling, partial curve] under setting [2] and 12.6 µM [falling, partial curve] under setting [1].
As to `Cc1ccc(S(=O)(=O)Nc2ccc3c(c2)n(C)c(=O)n3C)c(C)c1`, the AC50 under setting [2] is 0.316 µM [falling, partial curve, poor fit] and the AC50 under setting [1] is 0.355 µM [falling, full curve].
On to `CC(C)(C)n1nnnc1C(c1cccs1)N1CCCC2(CCCCC2)C1` (stereo not drawn), for which, under setting [1], the AC50 was 15.8 µM [rising, partial curve].
Consider `Cc1cccc(NC(=O)CSc2nnc([C@@H]3CCCN3C(=O)OC(C)(C)C)o2)c1C`, for which, under setting [1], the AC50 was 10 µM [falling, partial curve, poor fit].
For `COc1ccc(N2CCN(C(=O)CN3CCN(C(c4ccccc4)c4ccccc4)CC3)CC2)cc1`, the AC50 under setting [1] is 35.5 µM [rising, single point].
Same read-out and setting: the figure for `Cn1c(Cn2cnc3ccccc32)nnc1SCc1ccccc1` is 10 µM [rising, partial curve].
As for `CCOc1cc(CNc2ccc(N3CCCCC3)cc2)cc(Br)c1OCC(=O)NC(C)(C)C`, the half-maximal activity concentration (AC50) under setting [1] was 35.5 µM [rising, single point].
Consider `COc1cccc(/C=N/Nc2snc(SC)c2C#N)c1`, for which the AC50 was 0.00501 µM [falling, full curve] under setting [2] and 0.01 µM [falling, full curve] under setting [1].
On to `CN1CCN(C(=O)c2cc3nc(-c4ccccc4)cc(C(F)(F)F)n3n2)CC1`, for which the concentration at half-maximal activity (AC50) by setting is: under setting [2], 7.08 µM [rising, partial curve]; under setting [1], 11.2 µM [rising, partial curve].
As for `COc1ccc(CCNC(=O)c2ccccc2N(C)S(=O)(=O)c2ccccc2)cc1`, the AC50 is 17.8 µM [rising, single point] under setting [2] and 20 µM [rising, partial curve, poor fit] under setting [1].
Take `Cc1noc(C)c1COc1cccc(C(=O)Nc2ccccc2N2CCOCC2)c1`: the AC50 is 0.891 µM [rising, partial curve, poor fit] under setting [2] and 1.78 µM [rising, partial curve] under setting [1].
Take `Cc1cccc(NC(=O)c2ccccc2OCC(=O)c2ccccc2)c1`: under setting [1], the AC50 is 0.794 µM [falling, single point].
In the case of `Cc1cc(C(=O)OCC(=O)N2c3ccccc3NC(=O)C2(C)C)c(C)n1-c1ccccc1`, the AC50 under setting [1] was 11.2 µM [rising, partial curve].
For `Cc1ccc(C(NC(=O)N2CCCC2)C(Cl)(Cl)Cl)cc1F` (stereo not drawn), the AC50 under setting [1] is 0.708 µM [rising, full curve, poor fit].
In the case of `CCCCCCCCCCCCCC(=O)OC(C)C`, the AC50 by setting is: under setting [2], 0.562 µM [falling, full curve]; under setting [1], 0.562 µM [falling, single point].
`CC(O)(P(=O)(O)O)P(=O)(O)O`: the AC50 was 1.41 µM [falling, partial curve, poor fit] under setting [2] and 1.26 µM [falling, single point] under setting [1].
